In patent EP1908513A1, “Method for preparing and using chemical collections” (priority 2006, dated 2008):
The name of at least one read-out is uncertain.

Assay: Recovery after freeze-drying and reconstitution with water from various aqueous PEG media, by HPLC (Example 2)
Type: physicochemical

c1ccc2c(c1)[nH]c1ccccc12 [Compound 8, Carbazol]
Average Recovery % (20% PEG-400 + 10% PEG-8000, expected 200 µM): 94.8%
Average Recovery % (30% PEG-8000, expected 200 µM): 97.6%
Average Recovery % (30% PEG-20000, expected 200 µM): 92.1%
